Measured values taken from patent US6194378A, “Fibronectin peptides-based extracellular matrix for wound healing” (The Research Foundation of State University of New York, priority 1998, dated 2001).
Not every detail of the peptide structures is certain; ends, links or a residue may be inferred. Some entries repeat one wording, which the source may state once for all of them. Ends that are not written are not given here.

Tested on: human adult dermal fibroblasts
Experiment: two-dimensional outmigration of fibroblasts from contracted collagen gels over protein coated surfaces
Assay type: cell-based
Settings: for effect of synthetic peptide added to the outmigration assay on migration of fibroblasts onto dried FN: FN coated plates; for effect of synthetic peptide on migration over collagen: collagen coated assay plates
Method: Primary cultures of human adult dermal fibroblasts, acquired from Marcia Simon (Living Skin Bank, SUNY at Stony Brook), the ATCC (Bethesda, Md.), or the NIA (Bethesda, Md.), are cultured in Dulbecco's modified Eagle's medium (DMEM, Life Technologies) containing 42 mM sodium bicarbonate and supplemented with 100 U/ml penicillin, 100 μg/ml streptomycin, and 10% fetal bovine serum (FBS, HyClone, Logan, Utah), at 37° C. and 5% CO2 /95% air in a humidified atmosphere. The cells are used between passages 4 and 12.
Fibroblast cultures at 80% confluence are harvested by treatment with 0.05% trypsin/0.01% EDTA. Trypsin is inactivated by addition of soy bean trypsin inhibitor in PBS containing 0.2% BSA. The cells are washed twice with DMEM+2% BSA and resuspended at a concentration of 1×10^6 cells/ml. The fibroblasts are mixed with neutralized collagen (Vitrogen 100, Celtrix Labs., Santa Clara, Calif.), 2% BSA, 30 ng/ml PDGF-BB, 30 μg/ml fibronectin, and concentrated DMEM so that the final concentration of DMEM and sodium bicarbonate is 1x. 600 μl of the cell mixture is added to the wells of a 24-well tissue culture plate, which has been precoated with 2% BSA. The collagen is allowed to polymerize at 37° C. The final concentration of collagen is 1.8 mg/ml and each gel contains 6×10^4 cells. After two hours incubation, the gels are gently detached from the plastic surface to allow contraction with the addition of 0.5 ml DMEM+2% BSA and 30 ng/ml PDGF-BB per well. The gels are incubated overnight at 37° C. in 100% humidity, 5% CO2 and 95% air.
Fibronectin, its fragments or recombinant domains were diluted with concentrated DMEM to the appropriate concentration. Aliquots of 450 μl protein solution are added to the wells of 24-well tissue culture plates (Becton-Dickinson, Lincoln Park, N.J.). After a 2 hour incubation at 37° C. in 5% CO2, plates were dried overnight at room temperature under sterile conditions.
Plates coated with dried proteins were washed once with PBS and incubated with 2% BSA for 1 hour at 37° C. to block nonspecific binding sites. After washing the plates three times with PBS, contracted-collagen gel organotypic constructs were attached to the coated plates. DMEM, 2% BSA and 30 ng/ml PDGF-BB was added to assay plates so that the medium was level with the top of the collagen gel.
For preparation of "gold standard" transmigration assays containing a dermal organotypic construct surrounded by a fibrin clot as previously described (Greiling and Clark 1997), dried fibrin fibril-coated dishes are washed once with PBS and fibroblast-contracted collagen gels are placed on the surface. Fibrinogen, at a final concentration of 300 μg/ml, is mixed with DMEM and 1.0 U/ml thrombin, added to the wells so that the solution is level with the top of the collagen gel, and allowed to clot at room temperature for 30 min. When needed, other supplements such as 30 ng/ml PDGF-BB are added to the mixture. For HA 3-dimensional transmigration, wells are coated overnight at 37° C. with an appropriate solution of HA. The next day a fibroblast-contracted collagen gel is placed on the HA-coated well in DMEM, with or without 30 ng/ml PDGF-BB, is added so that the solution is level with the top of the collagen gels. All migration assays are quantified after a 24 hour incubation at 37° C. in 100% humidity, 5% CO2 and 95% air.
The number of migrated cells was quantified under a Nikon inverted phase microscope by visually counting identifiable cell nuclei located outside of the contracted collagen gel in the fibrin gel (transmigration assay) or on the matrix (outmigration assay). Within a given experiment each condition was run in triplicate and means ±SD calculated. All experiments were repeated at least three times. Statistical differences among conditions can be determined by ANOVA.

| Sequence | effect of synthetic peptide added to the outmigration assay on migration of fibroblasts onto dried FN | effect of synthetic peptide on migration over collagen |
| --- | --- | --- |
| KNNQKSEPLIGRKKT [peptide II] | inhibited the migration of fibroblasts onto dried FN in a dose-dependent manner | inhibitory effect in a dose-dependent manner |
| EILEVPST [CS1i, reference compound] | did not influence migration | did not influence the activity |
| YRVRVTPKEKTGPMKE [peptide III] | inhibited the migration of fibroblasts onto dried FN in a dose-dependent manner | no effect |
| GEEIQIGHIPREDVDYHLYP [CS5] | did not influence the migration | enhanced the migration at higher concentrations |
